Measurements published in publication PMC6109925, “Structural and functional analysis of cystatin E reveals enzymologically relevant dimer and amyloid fibril states” (The Journal of Biological Chemistry, 2018).
These are yes or no findings as the source states them, for the method shown. Sequences can lack the tags named with a protein.

Target: T1, human cystatin E, wild type, with C-terminal His6 tag followed by a Strep-tag (human) (UniProt Q15828)
T1 sequence: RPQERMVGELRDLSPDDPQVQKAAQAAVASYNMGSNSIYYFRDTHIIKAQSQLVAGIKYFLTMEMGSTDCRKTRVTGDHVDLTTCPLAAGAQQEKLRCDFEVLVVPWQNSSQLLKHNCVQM
Assay: pull-down; Strep-tagged cystatin E co-incubated with cystatin C at 70 °C for 10 min, 10 min on ice, loaded on Strep-Tactin Sepharose; 100 mM Tris pH 8.0, 150 mM NaCl; eluted with 2.5 mM desthiobiotin; SDS-PAGE; both purified

B1: human cystatin C, wild type (natural protein, UniProt P01034 27-146, looked up)
chain: SSPGKPPRLVGGPMDASVEEEGVRRALDFAVGEYNKASNDMYHSRALQVVRARKQIVAGVNYFLDVELGRTTCTKTQPNLDNCPFHDQPHLKRKAFCSFQIYAVPWQGTMTLSKSTCQDA
notes: N terminus Ser1 after removal of the pelB leader. numbers count on: the mature protein; Called 'untagged hCC' in the pull-down (it has no Strep-tag), while the methods give a C-terminal His6 tag for the expression constructs; also called hCC; WT cystatin C; source: E. coli Bl21(DE3), periplasm (pelB leader), purified (nickel-nitrilotriacetic acid resin, SEC)
binding: no binding
